Assay results

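Genome-wide siRNA knockdown in TC32 Ewing sarcoma cells, comparing luciferase light from an NR0B1-promoter reporter with a CMV-promoter reporter 48 hours after transfection. Each siRNA was applied at 20 nM. A z-score of the log NR0B1-over-CMV signal, less the median of siRNAs with the same seed; more negative means a stronger specific loss of the NR0B1 reporter.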

The strongest results of the screen are mostly left out here. Sequences are the guide (antisense) strand, without overhang.

UGCGGUAUAAGUUCUGGAG against FAM118A gave seed-corrected z-score -0.5526. With UUUCAUAUGAGGGCAGUCC against ELMO1 the assay gave seed-corrected z-score -0.3077. AUAUAGAUCAUAAAGCCUG against COQ5 read seed-corrected z-score 1.293. For AUCUUGGUGACGAUGGUCC against PIWIL3 the result was seed-corrected z-score -1.801. Result for AACCGAUUUAGCUGUUCUC against HEXIM2 was seed-corrected z-score -0.4195. Result for AAAGGAAAAGGGCUGGAUG against LRFN2 was seed-corrected z-score 0.8299.

Result for UCAGUAGAUUCGCACAUCC against GPM6A was seed-corrected z-score 1.076. For UCUUGUAAACCAAAGAUUC against SDR16C6P the result was seed-corrected z-score 0.01511. Result for UUCCGAAAUCCCUCUGUGC against MRPS11 was seed-corrected z-score -0.1926. AAAUGUCUCAGUCAUUGGG against FAM46A gave seed-corrected z-score -0.5477. For UUCUGUACUGCACCGUCCU against ZBTB46 the result was seed-corrected z-score 0.1177. UAUCUGUCCUUGACGAGUC against ADGRL3 gave seed-corrected z-score -0.1336.

For UGUGCAGUAGUUCAGGUCC against DLL1 the result was seed-corrected z-score 0.7497. For AAAGUAGGCGCGGUUCACA against PPM1F the result was seed-corrected z-score -0.3477. AAAGAUCUGAUGGAGGUGG against CCDC120 gave seed-corrected z-score -1.324. With AGUAGAAUCAGUGACCUGC against OGFRP1 the assay gave seed-corrected z-score 0.7443. UUAGCAGCUGGGAUCAUGG against ARMS2 read seed-corrected z-score -0.1576. UUUAUGACUUCGGAUGUGC against NFKBIZ gave seed-corrected z-score 0.215.

UUCGGUACAAGGAUAAAGG against SLC38A11 read seed-corrected z-score 1.53. Result for AAUAGUUCCCUUAAUGAAG against WBP2NL was seed-corrected z-score 0.04384. AUUGGUUCCAACGCGGAUC against RCOR2 gave seed-corrected z-score -0.4244. For AGUGUUGAAAAGACCACUC against TGIF1 the result was seed-corrected z-score 0.4612. For UAUCUAUAAAGUCGUCUGC against NCKAP1 the result was seed-corrected z-score -0.02288. For UUGAGUAAAAGAUUCAUCU against CPSF4L the result was seed-corrected z-score -1.043.

UAUCGGUCCUUUAAGAUGA against SEC11B gave seed-corrected z-score -0.09507. For UCAUCUACCUGGUUAGGUC against TEX14 the result was seed-corrected z-score -0.3684. UGAUAUAUUGCAUUGGAGG against MED7 read seed-corrected z-score 1.381. UUGAUGUUCAGGCAGCAGU against IRS2 gave seed-corrected z-score 0.2589. UUAUGUACAGUUCCUUAGG against PDCD1LG2 gave seed-corrected z-score 0.1543. With UCCAUGGAGAGCAACAUCG against RRN3 the assay gave seed-corrected z-score 0.1182.

Result for UUAAGUUAGAGUCUCUUGG against FAM150A was seed-corrected z-score -1.314. UGAGAUGUUGGACGCGUCC against IER5L gave seed-corrected z-score 0.1216. Result for AAUGUGCACACUCCUAAUG against SLC22A4 was seed-corrected z-score 0.0849. For UUCCUUCUACGAGCAGUUC against BTF3P16 the result was seed-corrected z-score 0.2863. UCCAAGAUCACAGUAUUGG against C2orf88 read seed-corrected z-score 0.0717. For UUUAGGCAGAGGGACUUCC against NSA2 the result was seed-corrected z-score 0.0941.

Result for UAUCUUCCAAUAGGAUCCC against ACBD5 was seed-corrected z-score 1.488. UCACCUUCAAGGACACUUC against LOC729187 read seed-corrected z-score 0.562. UUGAUGAUGAAAAACCGCC against PLEKHD1 read seed-corrected z-score -1.196. UCAGUCAGCACAUUAGCCU against ASB16 read seed-corrected z-score -0.06114. Result for AUUCUCAUGAAAGGCAUUC against CYP4A22 was seed-corrected z-score -0.9017. AUUGUUCCUACAGCUAAUG against SLC39A10 read seed-corrected z-score 3.231.

UUCAGGACCAUGUCGAUGA against PTPRN read seed-corrected z-score -0.02284. For UUUGGUACCAGGAAAGGUG against ENTPD5 the result was seed-corrected z-score -0.9708. UAAGUCUCGGGAGAAUGUU against CDC14C gave seed-corrected z-score 0.5572. UAUACUCUCAUCGUCUUGG against UGGT2 read seed-corrected z-score -0.555. AAAGGGAGUAGUAAAGCUG against PHOSPHO1 gave seed-corrected z-score -0.4145. UUUCCUAGGACUGACAUGG against ATRIP read seed-corrected z-score 0.9227.

With UUGCAAUUCACAAACACUC against CD3D the assay gave seed-corrected z-score -0.1141.

Once more, the final 4:

- UAUACUCUCAUCGUCUUGG against UGGT2 : seed-corrected z-score -0.555
- AAAGGGAGUAGUAAAGCUG against PHOSPHO1 : seed-corrected z-score -0.4145
- UUUCCUAGGACUGACAUGG against ATRIP : seed-corrected z-score 0.9227
- UUGCAAUUCACAAACACUC against CD3D : seed-corrected z-score -0.1141

The results are deposited in PubChem (AID1159506; NCATS, 2015).